Experimental data as given in PubChem BioAssay AID1259415 (National Center for Advancing Translational Sciences (NCATS), 2018).
About 18,000 (4.4%) of roughly 410,000 compounds were called active. The shares of active, inactive and inconclusive entries below differ from those in the screen. No stated cut-off is given here; in the data, active means activity change below about -60%; inconclusive means no clear call, values can overlap the other calls; inactive means above about -39%.

assay: qHTS Assay for inhibitors of the human cytomegalovirus (HCMV); details: HFF cells, HCMV-luciferase reporter, 72 h; at 57.5 µM; hits give low values
Outline: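 Screen run at 2 compound doses on HFFs infected with reporter HCMV, MOI 1 PFU/cell. Luciferase activity from cell lysates at 72 h post infection gave inhibition relative to buffer-only and Salinomycin wells.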
On the % scale 0 is the no-effect control and ±100 the full control effect.

Compound	activity change, negative = inhibition
O=S(=O)(NCCC(c1ccc(F)cc1)c1ccco1)c1ccccc1 (stereo not drawn)	inconclusive: -40.2%
CCc1cccc(NC(=O)CCn2c(=O)c3cccn3c3cccnc32)c1	inconclusive: -55.9%
O=S1(=O)CC2SC(=S)N(c3ccccc3)C2C1 (stereo not drawn)	inactive: 4.41%
Cc1ccc(S(=O)(=O)Nc2cccc(C(=O)NCCCN3CCOCC3)c2)cc1F	inconclusive: -51.8%
CN1C(=O)C(=Cc2ccc(N3CCCCCC3)o2)C(=O)N(C)C1=S	inconclusive: -44.8%
COCCCNC(=O)CCc1c(C)c2cc3c(C)coc3cc2oc1=O	inconclusive: -56.2%
CCCCC(=O)Nc1ccc2nc(SCC(=O)N3CCc4ccccc43)sc2c1	inactive: -31.4%
COCCNC(=O)C1CCCN(Cc2cccc(C(F)(F)F)c2)CC1 (stereo not drawn)	inconclusive: -59%
O=C(CSc1nc2nc3c(cc2c(=O)n1-c1ccccc1)CCCC3)Nc1ccccc1	inconclusive: -58.5%
Cc1ccc(NC(=O)CN2C(=O)CNC2=O)cc1	inconclusive: -46%
Cc1cc(C(F)(F)F)cc(NNC(=O)NC(=O)c2c(F)cccc2Cl)n1	inconclusive: -43.7%
O=C1CCC(C(=O)N2CCCCO2)CN1CCc1ccccc1 (stereo not drawn)	inactive: 5.69%
Cc1ccc(N2CCN(CCc3nc4cc(NS(C)(=O)=O)ccc4n3C)CC2)cc1	inconclusive: -46.9%
CCOC(=O)CSc1ncc(-c2ccc([N+](=O)[O-])cc2)[nH]1	inconclusive: -46.9%
Cc1csc2nc(COC(=O)c3ccccc3NC(=O)c3cccc(Br)c3)cc(=O)n12	inactive: -27.8%
CCN(Cc1cc2ccccc2[nH]c1=O)S(=O)(=O)c1ccccc1	inconclusive: -50.4%
CCC(C)(C)n1nnnc1C(c1cc2cc(C)cc(C)c2[nH]c1=O)N1CCN(C(=O)c2ccco2)CC1 (stereo not drawn)	inactive: -10.8%
CCC(=O)N1CCN(c2cc(N3CCCC3)c(F)cc2[N+](=O)[O-])CC1	inconclusive: -50.3%
C=CCNc1nc2c(c(=O)n(C)c(=O)n2C)n1Cc1ccc(F)cc1	active: -78.9%
CCN(CC)C(=O)c1ccc(Nc2nnc(-c3ccc(O)cc3)c3ccccc23)cc1	inconclusive: -48.7%
O=C(COc1ccc2c3c(c(=O)oc2c1)CCC3)NCCCN1CCCC1=O	inactive: -15.4%
CC1CCCN(CCCNC(=O)c2cc(Sc3ccc(F)cc3)nc3ccccc23)C1 (stereo not drawn)	active: -71.3%

Compound	activity change, negative = inhibition
COc1ccccc1OCc1ccc(C(=O)Nc2ccncc2)o1	inconclusive: -57.6%
O=C1c2ccccc2C(=O)N1CCc1csc(-c2ccccc2)n1	inconclusive: -41%
Cc1cc(C)cc(C(=O)Nc2cccc(NC(=O)c3ccco3)c2)c1	active: -72.6%
NC(=O)c1cc(NC(=O)CCCc2nc3ccccc3s2)cc(C(N)=O)c1	inactive: -13.1%
Cc1c(C(=O)N/N=C/c2ccc(O)c(Br)c2)sc(N)c1C#N	inconclusive: -43.9%
CC1CC(C)CN(S(=O)(=O)c2ccc(C(=O)N3CCCC3)cc2)C1 (stereo not drawn)	inconclusive: -42.1%
Cc1ccccc1NC(=O)c1cccc(S(C)(=O)=O)c1	active: -102%
CNC(=O)/C(C#N)=C1/SC(Cc2ccc(F)cc2)C(=O)N1c1ccccc1 (stereo not drawn)	inconclusive: -49.1%
CC(OC(=O)C1=COCCO1)C(=O)NC1CCCC(C)C1C (stereo not drawn)	inactive: -15.4%
Cc1nn(-c2ccccc2)c(Cl)c1/C=N/N1CCN(c2ccccn2)CC1	inconclusive: -53.3%
C[C@@H]1CN([C@H](C)CO)C(=O)CCCn2nncc2CO[C@@H]1CN(C)S(=O)(=O)c1ccccc1	inactive: 28.4%
Oc1ccc(/C=C/c2nc(-c3ccccc3O)n(-c3ccccc3)n2)c(O)c1	inconclusive: -54.5%
O=C(COC(=O)CCSc1ccc(Cl)cc1)NCc1ccccc1Cl	inconclusive: -46.9%
O=C(Cc1ccccc1)Nc1ccc(Br)c(Cl)c1	inconclusive: -55.3%
Cn1nc(C(C)(C)C)cc1N1C(=O)CCC1(C)C(=O)NC1CCCCC1 (stereo not drawn)	inactive: 13.3%
S=C1SCN(Cc2cccs2)CN1Cc1cccs1	inconclusive: -57.9%
COc1cccc(NC(=O)Nc2cccn(Cc3ccc(C)cc3)c2=O)c1	inconclusive: -52.6%
COc1cc(NC(=O)Cn2nc(C(F)(F)F)c(Br)c2C)cc([N+](=O)[O-])c1	active: -95.7%
O=C(NCCCn1ccnc1)c1cccc(S(=O)(=O)NCc2ccccc2)c1	inconclusive: -55.9%
Cc1cccc(N2CCN(CC(O)COc3ccc4ccccc4c3)CC2)c1 (stereo not drawn)	inactive: 11.2%
[O-]/[N+](=C\c1ccco1)c1ccc(Cl)cc1	inactive: 27.1%
O=C(NCc1ccccc1)C(c1ccncc1)n1c(=O)c(-c2ccccc2)nc2ccccc21 (stereo not drawn)	inconclusive: -46.5%

Compound	activity change, negative = inhibition
O=C(c1ccc(Cn2cc([N+](=O)[O-])cn2)o1)N1CCCCCC1	inconclusive: -49.1%
CCOc1ccc(NC(=O)c2cc(=O)c3cc(CC)ccc3o2)cc1	inactive: -14.1%
Cc1nn(Cc2c(Cl)cccc2Cl)c(Cl)c1C(=O)O	inconclusive: -49.4%
CCc1ccccc1NC(=O)CNC(=O)CNC(=O)c1cccs1	inconclusive: -55.3%
CCC(CC)COC(=O)C1=C(C)NC(=O)NC1c1ccccc1Br (stereo not drawn)	inconclusive: -47.2%
COc1ccccc1NC(=S)NCCc1ccc(OC)c(OC)c1	inconclusive: -42.1%
CC(C)Cn1c(=O)c(C(=O)N/N=C/c2cccc(F)c2)c(O)c2ccccc21	inconclusive: -41.4%
CC(C)n1nnnc1SCC(=O)N1CCN(Cc2ccc3c(c2)OCCO3)CC1	inconclusive: -50.9%
CN(C(=O)COc1ncnc2ccc(Br)cc12)C1CCCCC1	inactive: -26.8%
Cc1ccc(-c2ccc(/C=C(\C#N)C(N)=S)n2C)cc1	inactive: 89%
CCOc1ccc(-c2nnc(SCC(=O)N3CCNC3=O)o2)cc1	inactive: 0%
O=C(NCc1cc2ccccc2[nH]1)C1CCC(=O)N(CCCN2CCCC2=O)C1 (stereo not drawn)	inactive: 0%
COCCn1c(C)cc(C2=NNC(=Nc3ccccc3)SC2)c1C	inactive: 15.9%
CCCCNC(=O)C(CC)Sc1nnc(-c2ccc(F)cc2)c(-c2ccc(F)cc2)n1 (stereo not drawn)	inactive: -0.276%
O=C1/C(=C/c2ccc(S(=O)(=O)O)cc2S(=O)(=O)O)CCc2ccccc21	inactive: 4.67%
CC(C)N1CCC(N2CCN(Cc3cc4c(cc3Cl)OCO4)CC2CCO)CC1 (stereo not drawn)	inconclusive: -42%
Cc1cc(C)nc(SCC(=O)Nc2ccc(S(=O)(=O)NC(C)(C)C)cc2)n1	inconclusive: -52.9%
Cc1ccccc1CCNCc1ccc(Br)cc1	inconclusive: -52.7%
CC(=O)c1c(C)[nH]c(C(=O)OCC(=O)N2CC(=O)Nc3ccccc32)c1C	inactive: 117%
Nc1c(C(=O)Nc2ccc(F)cc2)nnn1-c1cccc(C(F)(F)F)c1	inconclusive: -55.5%
Cc1ccc(Cl)cc1NC(=O)c1ccc(NC(=O)N2CCSc3ncccc32)cc1	inconclusive: 0%
O=C(NCC(=O)N1CCN(S(=O)(=O)c2ccccc2)CC1)c1ccc2ccccc2c1	inactive: -14.8%

Shown bar-delimited: entries from further up.
Compound | activity change, negative = inhibition
CCOc1ccc(NC(=O)c2cc(=O)c3cc(CC)ccc3o2)cc1 | inactive: -14.1%
Cc1nn(Cc2c(Cl)cccc2Cl)c(Cl)c1C(=O)O | inconclusive: -49.4%
CCc1ccccc1NC(=O)CNC(=O)CNC(=O)c1cccs1 | inconclusive: -55.3%
CCC(CC)COC(=O)C1=C(C)NC(=O)NC1c1ccccc1Br (stereo not drawn) | inconclusive: -47.2%

Continuation.

Compound	activity change, negative = inhibition
C/C(=N\NC(=O)c1c([N+](=O)[O-])c(C)nn1C)c1ccc(NC(=O)C2CCCC2)cc1	inconclusive: -59.1%
CC(=O)c1c(C)[nH]c(C(=O)OCC(=O)Nc2ccccc2Cl)c1C	inactive: -10.5%
COc1ccc(N2CCN(c3ccc([N+](=O)[O-])cc3Cl)CC2)cc1	inconclusive: -40.1%
O=C(NCCCN1CCOCC1)c1ccc(Sc2cccc(Cl)c2)c([N+](=O)[O-])c1	inconclusive: -45.6%
CC(C)(CO)N1CCN(C(=S)Nc2ccccc2)CC1	inactive: -9.43%
Cc1ccc(C)c(-c2csc(N)c2C(=O)OC(C)C)c1	inconclusive: -47.5%
COc1cccc(NC(=O)C2CCN(S(=O)(=O)c3ccc4c(c3)CC(C)N4C(C)=O)CC2)c1 (stereo not drawn)	inconclusive: -48.8%
CCOc1ccc(NC(=O)CN2CCN(CC(=O)Nc3ccc(N(CC)CC)cc3)CC2)cc1	inactive: 6.55%
O=C(COc1ccc(Cl)cc1Cl)NC(=S)N1CCCc2ccccc21	inconclusive: -45.2%
CCOc1ccccc1NC(=O)N1CCCc2ccccc21	inconclusive: -48.7%
CN(CC(=O)Nc1cccc(F)c1)C(=O)C1(c2ccccc2)CC1	inconclusive: -40.7%
CCOc1ccc(-n2cc(C(=O)Nc3cccc(Cl)c3)c3cc(OC)c(OC)cc3c2=O)cc1	inactive: 1.75%
Cc1ccc(NC(=O)c2c(C)oc3ncn(C)c(=O)c23)cc1F	inactive: 24.9%
O=C(N/N=C/c1ccc2c(c1)OCO2)c1cc2ccccc2o1	inconclusive: -41.7%
Cc1cc(Cl)ccc1OCC(=O)NN1C(=O)C2C3C=CC(C3)C2C1=O (stereo not drawn)	inconclusive: -48.7%
O=C(CC1SC(=O)N(c2ccccc2)C1=O)Nc1ccc(Br)cc1 (stereo not drawn)	inactive: -3.94%
COC(=O)c1ccc(COC(=O)c2[nH]c(C)c(C(C)=O)c2C)o1	inactive: 33.2%
CCc1ccccc1NC(=O)Cn1nnc(-c2nc(-c3ccncc3)no2)c1N	inconclusive: -41.8%
CC(C)(C)c1ccc(OCCCCCCN2CCNCC2)cc1	inconclusive: -59.8%
CSCCOC(=O)COc1ccc(/C=N/NC(=O)c2nn(C)cc2Cl)cc1	inconclusive: -49.8%
O=C(NC1CCCCC1)C(c1ccccc1)N1CCOCC1 (stereo not drawn)	inactive: -8.15%
Cc1ccc(/C=N/n2c(-c3ccncc3)n[nH]c2=S)s1	inconclusive: -44.1%
